Results are given in words; binding and its absence hold for the method and conditions named. Binding seen in cells or lysates may run through a third protein. These calls come from enrichment with a bait or labelling near it, and not all partners need be listed. Sequences can lack the tags named with a protein.
T1: KIFC1, bait of the IP-MS screen (UniProt Q9BW19)
T1 sequence: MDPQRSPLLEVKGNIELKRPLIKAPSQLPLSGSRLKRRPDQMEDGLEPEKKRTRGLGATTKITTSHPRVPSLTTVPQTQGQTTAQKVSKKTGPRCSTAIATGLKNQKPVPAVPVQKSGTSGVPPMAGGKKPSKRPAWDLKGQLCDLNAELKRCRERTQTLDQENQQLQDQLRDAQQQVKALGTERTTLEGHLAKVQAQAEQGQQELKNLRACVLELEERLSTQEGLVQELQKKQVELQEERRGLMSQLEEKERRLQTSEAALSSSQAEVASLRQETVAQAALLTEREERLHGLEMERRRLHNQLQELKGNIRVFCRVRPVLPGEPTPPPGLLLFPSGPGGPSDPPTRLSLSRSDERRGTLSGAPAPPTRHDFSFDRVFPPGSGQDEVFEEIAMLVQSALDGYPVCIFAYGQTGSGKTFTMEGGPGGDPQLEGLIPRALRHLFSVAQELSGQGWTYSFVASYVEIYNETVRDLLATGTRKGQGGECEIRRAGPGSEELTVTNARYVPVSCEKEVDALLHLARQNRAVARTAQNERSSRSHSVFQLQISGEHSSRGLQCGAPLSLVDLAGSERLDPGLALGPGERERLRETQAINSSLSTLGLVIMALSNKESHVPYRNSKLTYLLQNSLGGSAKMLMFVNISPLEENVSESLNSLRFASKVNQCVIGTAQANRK

B1: SMG8 (protein, UniProt Q8ND04 1-991)
chain: MAGPVSLRDLLMGASAWMGSESPGGSPTEGGGSAAGGPEPPWREDEICVVGIFGKTALRLNSEKFSLVNTVCDRQVFPLFRHQDPGDPGPGIRTEAGAVGEAGGAEDPGAAAGGSVRGSGAVAEGNRTEAGSQDYSLLQAYYSQESKVLYLLLTSICDNSQLLRACRALQSGEAGGGLSLPHAEAHEFWKHQEKLQCLSLLYLFSVCHILLLVHPTCSFDITYDRVFRALDGLRQKVLPLLKTAIKDCPVGKDWKLNCRPCPPRLLFLFQLNGALKVEPPRNQDPAHPDKPKKHSPKRRLQHALEDQIYRIFRKSRVLTNQSINCLFTVPANQAFVYIVPGSQEEDPVGMLLDQLRSHCTVKDPESLLVPAPLSGPRRYQVMRQHSRQQLSFHIDSSSSSSSGQLVDFTLREFLWQHVELVLSKKGFDDSVGRNPQPSHFELPTYQKWISAASKLYEVAIDGKEEDLGSPTGELTSKILSSIKVLEGFLDIDTKFSENRCQKALPMAHSAYQSNLPHNYTMTVHKNQLAQALRVYSQHARGPAFHKYAMQLHEDCYKFWSNGHQLCEERSLTDQHCVHKFHSLPKSGEKPEADRNPPVLYHNSRARSTGACNCGRKQAPRDDPFDIKAANYDFYQLLEEKCCGKLDHINFPVFEPSTPDPAPAKNESSPAPPDSDADKLKEKEPQTQGESTSLSLALSLGQSTDSLGTYPADPQAGGDNPEVHGQVEVKTEKRPNFVDRQASTVEYLPGMLHSNCPKGLLPKFSSWSLVKLGPAKSYNFHTGLDQQGFIPGTNYLMPWDIVIRTRAEDEGDLDTNSWPAPNKAIPGKRSAVVMGRGRRRDDIARAFVGFEYEDSRGRRFMCSGPDKVMKVMGSGPKESALKALNSDMPLYILSSSQGRGLKPHYAQLMRLFVVVPDAPLQIILMPQVQPGPPPCPVFYPEKQEITLPPDGLWVLRFPYAYVTERGPCFPPKENVQLMSYKVLRGVLKAVTQ
B2: MYCBP (hit of the IP-MS screen) (protein, UniProt Q99417 1-103)
chain: MAHYKAADSKREQFRRYLEKSGVLDTLTKVLVALYEEPEKPNSALDFLKHHLGAATPENPEIELLRLELAEMKEKYEAIVEENKKLKAKLAQYEPPQEEKRAE

Molecular target: T1, KIFC1, bait of the IP-MS screen
Test: affinity purification with mass spectrometry; IP-MS with KIFC1 as bait; Orbitrap Exploris 480; search against the reviewed SwissProt human proteome; cells not given

Molecule | binding
CDC42EP | binds
B1 | binds
B2 | binds

From publication PMC12084419
